Not every detail of the peptide structures is certain; ends, links or a residue may be inferred. For some of these results: At least one compound was matched to its structure with a doubt left. Peptide text beside a SMILES is read from it.
Experiments:
[1] = system: M1 protein-induced release of HBP from PMNs in human blood; conditions: M1 protein 1 μg/ml, 30 min 37° C., FIG. 2 and FIG. 5B
[2] = system: mice of the C57BL/6 strain
TNF-stimulated PMNs = conditions: Loike et al., 1991; cited from earlier work
[3] = system: thrombin-induced coagulation of normal plasma; assay: Clotting assay (thrombin clotting time); type: biochemical; conditions: human plasma, peptides 100 μg/ml, 15 min 37° C., FIG. 5A
Experimental: Clotting assay—The thrombin clotting time (TCT) was measured in a coagulometer (Amelung, Lemgo, Germany). Samples of 200 μl human citrate-treated plasma were incubated with 4 μl of peptide H-2395 or H-2940 (5 mg/ml) for 15 min at 37° C. Clotting was initiated by adding 100 μl of the TCT reagent (Sigma Chemicals, St. Louis, Mo.).

PMNs = conditions: Ruf and Patscheke, 1995; cited from earlier work
[4] = system: purified PMNs in a mixture of plasma and M1 protein; assay: M1 protein-induced PMN aggregation, scanning electron microscopy; type: cell-based, human
Experimental: Cell culture, neutrophil isolation, and stimulation of cells. Human PMNs were isolated from fresh heparinized blood of healthy volunteers using NIM, a single step density gradient medium, according to the instructions supplied by the manufacture. PMNs were counted with a hemocytometer, resuspended in MEM medium at 10^7 cells/ml and maintained on rotation in this medium at room temperature until use. All experiments on isolated PMNs were performed in Na-medium and initiated within 1 h of PMN isolation. Neutrophilic proteinase release was induced by PMN activation through antibody cross-linking of CD11 b/CD18 as described previously (Gautam et al., 2000, J. Exp. Med., 191, 1829-1839).
Scanning electron microscopy—Probes were gently applied to Millipore filters (Waters Corporation, Milford). Samples were then sucked down to the filters by a wet filter paper lying underneath. The filters were fixed in 2% (v/v) glutaraldehyde, 0.1 M sodium cacodylate, 0.1 M sucrose, pH 7.2 for 1 h at 4° C., and washed with 0.15 M cacodylate, pH 7.2. The filters were postfixed with 1% (w/v) osmium tetroxide, 0.15 M sodium cacodylate, pH 7.2, for 1 h at 4° C., washed, and stored in cacodylate buffer. […]

[5] = system: S. pyogenes AP1 bacteria infected mice; type: in vivo, mouse; conditions: s.c. AP1 bacteria with 400 μg peptide, i.v. peptide after 30 min, lungs six hours after infection, scanning electron microscopy
[6] = M1 protein 15 μg/animal with peptide 400 μg/animal i.v., 30 min

Compound	effect on M1 protein-induced release of HBP [1]	M1 protein induced lung lesions (hemorrhage and tissue destruction), light microscopy [2, 6]	M1 protein-caused lung damage, scanning electron microscopy [2, 6]	ratio of lung area containing protein aggregates versus total lung area ([2]; M1 protein plus peptide i.v., six lung sections per animal, electron microscopy) [%]	adherence of TNF-stimulated PMNs to fibrinogen-coated surfaces (TNF-stimulated PMNs)	thrombin-induced coagulation / clotting time [3]	platelet-induced activation of PMNs (PMNs)	M1 protein-induced PMN aggregation [4]	lung damage in infected mice [5]
COC[C@H]1OC(=O)c2coc3c2[C@@]1(C)C1=C(C3=O)[C@@H]2CCC(=O)[C@@]2(C)C[C@H]1OC(C)=O [wortmannin]	blocked the release of HBP almost completely	–	–	–	–	–	–	–	–
N=C(N)NCCC[C@H](NC(=O)[C@H](Cc1c[nH]cn1)NC(=O)CN)C(=O)N1CCC[C@H]1C(=O)O [Gly-His-Arg-Pro] (H-GHRP-OH)	did not influence HBP secretion	could not prevent the M1 protein induced bleeding and tissue destruction	did not influence M1 protein-caused lung damage	90±2	had no effect	did not influence the clotting time	had no effect	had no effect	failed to prevent pulmonary damage

Reference: US20070172471A1, “Method for identifying an anti- streptococcal agent and its use for treating streptococcal infections” (Hansa Medical AB, priority 2003, published 2007)
